# Measurements reported in PubChem BioAssay AID504744 (Drosophila RNAi Screening Center, 2011).
# Assay: 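Identify dsRNAs that increase or decrease phospho-dAkt after insulin treatment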 (primary screen)
# System: Drosophila Kc167 cells
# Knock-down reagent: long dsRNA against Drosophila genes, 250 ng dsRNA per well of a 384-well plate
# Timing: 3 days of knock-down, then overnight serum-free starvation before stimulation
# Challenge: bovine insulin at 387 nM for 10 minutes after 12 h without serum
# Measurement: 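Per-well phospho-dAkt level from an in-cell fluorescent antibody stain, divided by a DNA-dye signal; log2 residuals turned into z-scores that take cell number into account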
# Hit rule: 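Under insulin, a gene counts as a hit if the average z-score of two replicates lies above 2.5 or below -2.5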
# In all, the deposit lists about 23,000 reagents; below is an unselected part of those that have a named target and a result. Of all reagents, 98 (0.43%) got an active call. 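Only hit calls are given; the phospho-dAkt signals, z-scores and hit direction were not deposited.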
gene,DRSC id,activity call
CG7714,DRSC16300,inactive
Plc21C,DRSC00773,inactive
CG14300,DRSC14779,inactive
crq,DRSC00810,inactive
CG4681,DRSC04481,inactive
CG1208,DRSC12190,inactive
CG3795,DRSC18593,inactive
CG13168,DRSC06295,inactive
CG15472,DRSC18055,inactive
CG31344,DRSC16069,inactive
SpdS,DRSC16408,inactive
CG1227,DRSC12534,inactive
CG18284,DRSC02661,inactive
CG18284,DRSC20756,inactive
Sac1,DRSC08622,inactive
stw,DRSC04842,inactive
stw,DRSC04843,inactive
stw,DRSC22527,inactive
CG4982,DRSC10465,inactive
ncd,DRSC17012,inactive
CG8399,DRSC07163,inactive
CG12716,DRSC19493,inactive
CG32733 (retired record),DRSC17481,inactive
CG18558,DRSC00525,inactive
CG18558,DRSC21593,inactive
Psc,DRSC07518,inactive
CG14556,DRSC14899,inactive
CycC,DRSC16619,inactive
Egfrap,DRSC09963,inactive
Egfrap,DRSC09964,inactive
CG43773,DRSC00287,inactive
CG43773,DRSC00288,inactive
Sfmbt,DRSC02552,inactive
CG4250,DRSC04455,inactive
Pgant7,DRSC19991,inactive
CG5177,DRSC02824,inactive
GluProRS,DRSC14095,inactive
Glo1,DRSC06657,inactive
CG31792,DRSC02604,inactive
CG33178,DRSC19950,inactive
CG32700,DRSC17857,inactive
CG32700,DRSC17858,inactive
Su(H),DRSC03445,inactive
Vm26Ab,DRSC03473,inactive
Vps11,DRSC11909,inactive
Vps11,DRSC21579,inactive
Gfat2,DRSC14598,inactive
CG4382,DRSC02743,inactive
bcd,DRSC12624,inactive
CG11584,DRSC19408,inactive
snRNP-U1-70K,DRSC03612,inactive
snRNP-U1-70K,DRSC22071,inactive
CG32281,DRSC08236,inactive
Upf3,DRSC04092,inactive
twi,DRSC04720,inactive
CG46385,DRSC06425,inactive
CG46385,DRSC06557,inactive
comm,DRSC11336,inactive
SmydA-9,DRSC17814,inactive
CG11788,DRSC06084,inactive
Gp210,DRSC04861,inactive
Gp210,DRSC04900,inactive
CG6163,DRSC10595,inactive
CG13994,DRSC02326,inactive
CG33252,DRSC19162,inactive
TM9SF2,DRSC03197,inactive
CG13992,DRSC02324,inactive
elB,DRSC01379,inactive
elB,DRSC03527,inactive
CG9451,DRSC11074,inactive
CG14839,DRSC14963,inactive
CG4872,DRSC19921,inactive
CG17300,DRSC10260,inactive
GPHR,DRSC07075,inactive
CG10939,DRSC06019,inactive
CG10939,DRSC21734,inactive
CG17930,DRSC15292,inactive
Octbeta2R,DRSC15350,inactive
Octbeta2R,DRSC16165,inactive
CG17349,DRSC02610,inactive
CG33459,DRSC05615,inactive
CG3226,DRSC18296,inactive
fend,DRSC17601,inactive
fend,DRSC17867,inactive
CG12279,DRSC14495,inactive
puml,DRSC06793,inactive
CG14613,DRSC20625,inactive
TM9SF3,DRSC09747,inactive
Gr98a,DRSC14719,inactive
CG13615,DRSC14618,inactive
eIF1,DRSC08520,inactive
CG14050,DRSC18594,inactive
twy,DRSC10562,inactive
Ir8a,DRSC17817,inactive
Ir8a,DRSC17869,inactive
CG14362,DRSC14824,inactive
CG15194 (retired record),DRSC19642,inactive
CG15194 (retired record),DRSC19777,inactive
CG8206,DRSC20093,inactive
Tssk,DRSC14784,inactive
Pfdn2,DRSC10618,inactive
rdog,DRSC14431,inactive
Uch-L5,DRSC11314,inactive
CG12914,DRSC06229,inactive
CG11147,DRSC02129,inactive
Sgt,DRSC02812,inactive
Acsl,DRSC07252,inactive

11 neighbouring reagents from above, for reference:
gene,DRSC id,activity call
CG32700,DRSC17857,inactive
CG32700,DRSC17858,inactive
Su(H),DRSC03445,inactive
Vm26Ab,DRSC03473,inactive
Vps11,DRSC11909,inactive
Vps11,DRSC21579,inactive
Gfat2,DRSC14598,inactive
CG4382,DRSC02743,inactive
bcd,DRSC12624,inactive
CG11584,DRSC19408,inactive
snRNP-U1-70K,DRSC03612,inactive
